Experimental data as given in PubChem BioAssay (NCATS).
This list was built around the results that the source calls inconclusive (neither active nor inactive); the mix of calls is not that of the screen. For some assays here: Potencies beside an inconclusive call are fits to weak or partial responses and may not hold up. For some assays here: “Side channel” marks fits to a control or component signal instead of the main read-out. The source made the active and inactive calls. Unless noted, calls come from the whole dose curve; as a rule, active = well fitted curve in the direction sought with a large enough effect; inconclusive = small, poorly fitted or top-dose-only effect, or another doubt; inactive = no such curve, though single readings can be large; an effect the other way counts as inactive or inconclusive.

The chains behind the UniProt entries cited, without tags or fusion partners. Where a name states a change or a piece, a line headed by the entry shows the natural chain unless it says otherwise.
UniProt Q03181: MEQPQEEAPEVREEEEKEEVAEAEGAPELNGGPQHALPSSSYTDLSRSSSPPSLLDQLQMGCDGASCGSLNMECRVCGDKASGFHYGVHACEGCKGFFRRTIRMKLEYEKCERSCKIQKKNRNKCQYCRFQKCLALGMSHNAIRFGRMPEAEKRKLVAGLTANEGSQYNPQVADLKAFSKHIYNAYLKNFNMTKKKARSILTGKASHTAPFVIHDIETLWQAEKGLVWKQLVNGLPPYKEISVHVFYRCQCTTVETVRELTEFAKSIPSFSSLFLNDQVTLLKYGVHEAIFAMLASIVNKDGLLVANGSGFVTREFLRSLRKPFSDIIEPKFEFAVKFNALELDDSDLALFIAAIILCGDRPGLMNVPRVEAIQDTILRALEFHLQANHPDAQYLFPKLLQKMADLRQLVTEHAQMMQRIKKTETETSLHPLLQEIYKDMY
UniProt P19793: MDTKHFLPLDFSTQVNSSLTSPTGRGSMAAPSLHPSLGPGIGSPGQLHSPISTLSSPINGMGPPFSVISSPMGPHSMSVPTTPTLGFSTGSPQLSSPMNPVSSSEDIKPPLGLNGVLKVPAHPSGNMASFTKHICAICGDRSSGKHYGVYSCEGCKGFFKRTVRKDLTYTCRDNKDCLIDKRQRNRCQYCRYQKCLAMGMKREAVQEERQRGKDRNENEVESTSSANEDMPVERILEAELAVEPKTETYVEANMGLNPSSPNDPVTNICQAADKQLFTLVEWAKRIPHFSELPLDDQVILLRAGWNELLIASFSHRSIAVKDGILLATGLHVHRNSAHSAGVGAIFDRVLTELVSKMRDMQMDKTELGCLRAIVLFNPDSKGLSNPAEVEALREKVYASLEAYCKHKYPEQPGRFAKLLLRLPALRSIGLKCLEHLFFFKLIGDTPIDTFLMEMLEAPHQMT
UniProt P10828: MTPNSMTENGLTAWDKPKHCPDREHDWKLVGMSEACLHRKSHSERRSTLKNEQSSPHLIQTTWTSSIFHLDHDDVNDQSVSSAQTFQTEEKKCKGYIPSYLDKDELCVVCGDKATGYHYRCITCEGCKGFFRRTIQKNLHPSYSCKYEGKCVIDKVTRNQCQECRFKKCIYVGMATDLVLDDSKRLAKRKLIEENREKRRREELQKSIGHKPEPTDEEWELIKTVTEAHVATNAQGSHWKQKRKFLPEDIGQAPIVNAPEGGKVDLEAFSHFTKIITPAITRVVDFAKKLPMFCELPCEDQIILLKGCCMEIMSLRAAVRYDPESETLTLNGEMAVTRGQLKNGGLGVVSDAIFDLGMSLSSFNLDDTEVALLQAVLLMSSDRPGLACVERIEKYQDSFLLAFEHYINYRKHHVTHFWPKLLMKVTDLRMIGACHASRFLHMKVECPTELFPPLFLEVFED
UniProt Q07869: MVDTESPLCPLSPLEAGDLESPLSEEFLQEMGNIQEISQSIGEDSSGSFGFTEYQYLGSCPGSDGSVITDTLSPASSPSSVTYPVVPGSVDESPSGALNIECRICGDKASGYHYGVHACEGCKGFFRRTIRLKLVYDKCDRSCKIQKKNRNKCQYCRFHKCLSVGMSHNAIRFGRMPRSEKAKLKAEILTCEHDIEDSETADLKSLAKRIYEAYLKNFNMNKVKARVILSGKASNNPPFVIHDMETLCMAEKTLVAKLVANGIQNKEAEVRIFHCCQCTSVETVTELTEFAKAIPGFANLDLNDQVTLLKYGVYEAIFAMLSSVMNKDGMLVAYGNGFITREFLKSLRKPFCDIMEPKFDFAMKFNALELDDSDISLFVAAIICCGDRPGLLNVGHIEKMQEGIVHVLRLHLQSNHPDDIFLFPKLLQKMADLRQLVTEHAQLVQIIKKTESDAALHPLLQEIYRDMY
UniProt P51449: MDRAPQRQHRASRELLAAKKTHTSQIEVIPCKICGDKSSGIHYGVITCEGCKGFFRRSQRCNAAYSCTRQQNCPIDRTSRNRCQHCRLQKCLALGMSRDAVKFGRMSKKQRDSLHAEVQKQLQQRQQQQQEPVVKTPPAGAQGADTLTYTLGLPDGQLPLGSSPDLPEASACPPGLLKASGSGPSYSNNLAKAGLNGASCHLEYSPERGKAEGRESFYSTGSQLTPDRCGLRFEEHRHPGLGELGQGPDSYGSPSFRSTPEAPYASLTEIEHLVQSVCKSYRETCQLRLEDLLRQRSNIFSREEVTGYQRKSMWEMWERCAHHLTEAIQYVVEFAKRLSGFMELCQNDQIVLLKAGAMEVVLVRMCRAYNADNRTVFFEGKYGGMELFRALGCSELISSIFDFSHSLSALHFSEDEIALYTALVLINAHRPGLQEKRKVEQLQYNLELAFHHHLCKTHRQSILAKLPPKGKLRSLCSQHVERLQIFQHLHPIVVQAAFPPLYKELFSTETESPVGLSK

Columns and labels:
[1] = Cell Viability - LYMP1-002 - Assay at 24 hr (AID 993); note: potency is the fitted concentration of half-maximal effect
Outline: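 Human lymphoblastoid LYMP1-002 cells (2500/well) treated 24 h at 37 °C; viability as intracellular ATP by CellTiter-Glo luminescence. Tetraoctylammonium bromide as positive control; AC50 from Hill-equation fits of qHTS concentration-response.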

[2] = Cell Viability - LYMP1-002 - Assay at 40 hr (AID 994); note: potency is the fitted concentration of half-maximal effect; nearly all actives have a fitted effect of over 60% in size
Outline: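 LYMP1-002 human lymphoblastoid cells (2500/well, complete medium) were treated with compounds for 40 hr at 37 C. Intracellular ATP was measured by CellTiter-Glo luminescence, and AC50 values came from Hill-equation fits of concentration-response data; tetraoctylammonium bromide was the positive control.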

[3] = target: Bile acid receptor (Homo sapiens) (UniProt Q96RI1); test: qHTS assay for small molecule antagonists of farnesoid X receptor signaling (AID 588526; calls by dose curve; note: potency is the fitted concentration of half-maximal effect); conditions: HEK293T FXR-UAS-bla, beta-lactamase ratio, antagonist mode; activity change, negative = inhibition: at 76.7 µM (top of the series)
Outline: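 Concentration-response titrations were fitted to the Hill equation for half-maximal inhibition and maximal response, with data normalised to 50 uM chenodeoxycholic acid and DMSO control wells. Cells: FXR-UAS-bla HEK293T, dialyzed FBS.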

[4] = target: Bile acid receptor (Homo sapiens) (UniProt Q96RI1); test: qHTS assay for small molecule agonists of farnesoid X receptor signaling (AID 588527; calls by dose curve;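 note: 0% = vehicle basal and 100% = reference agonist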); conditions: HEK293T FXR-UAS-bla, beta-lactamase ratio, 16 h; activation: active compounds read high
Outline: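 FXR-UAS-bla HEK293T cells (10% dialyzed FBS) preincubated 5-7 h at 37 C, then compounds at up to 92 uM for 16 h at 37 C. CCF4 beta-lactamase read-out after 2 h RT. Normalized to chenodeoxycholic acid (100 uM) and DMSO; Hill fit gave EC50 and efficacy.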

[5] = target: Peroxisome proliferator-activated receptor delta (Homo sapiens) (UniProt Q03181); test: qHTS assay for small molecule antagonists of peroxisome proliferator-activated receptor delta signaling (AID 588535; active = well fitted inhibition curve with a large enough effect in the signal ratio, with a control signal flat, not every such curve was filed as active; inconclusive = small, poorly fitted or top-dose-only effect, or effect the other way, or a change in a side signal; inactive = no such curve, though single readings can be large or run the other way; the % refers to the signal ratio; note: potency is the fitted concentration of half-maximal effect); conditions: HEK293T PPARd-UAS-bla, beta-lactamase FRET ratio, 18 h; activity change, negative = inhibition: at 76.7 µM (top of the series)
Outline: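 Reporter: UAS-bla under PPAR-delta response element, HEK293T host. Medium: 2% charcoal/dextran FBS. Dosing: titration, 18 hrs, 37 C. Detection: CCF4, 2 hrs RT, 405 ex/460 and 530 em.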

[6] = target: Peroxisome proliferator-activated receptor gamma (Homo sapiens) (UniProt P37231); test: qHTS assay for small molecule antagonists of peroxisome proliferator-activated receptor gamma signaling (AID 588537; active = well fitted inhibition curve with a large enough effect in the signal ratio, with a control signal flat, not every such curve was filed as active; inconclusive = small, poorly fitted or top-dose-only effect, or effect the other way, or a change in a side signal; the % refers to the signal ratio; note: potency is the fitted concentration of half-maximal effect); conditions: HEK293 PPARg-UAS-bla, beta-lactamase ratio, antagonist mode; activity, negative = inhibition: at 76.8 µM (top of the series)
Outline: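 We seeded GeneBLAzer HEK293 reporter cells at 3000 per well, allowed 6-6.5 h attachment at 37 C, then co-treated with test compound titrations and 50 nM rosiglitazone overnight (16 h). Inhibition was quantified from 460/530 nm emission ratios.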

[7] = target: Vitamin D3 receptor (Homo sapiens) (UniProt P11473); test: qHTS assay for small molecule agonists of vitamin D receptor signaling (AID 588543; calls by dose curve; note: potency is the fitted concentration of half-maximal effect); conditions: HEK293T VDR-UAS-bla, beta-lactamase ratio, 16 h; activation: at 76.8 µM (top of the series)
Outline: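 GeneBLAzer VDR-UAS-bla HEK293T cells in 2% charcoal-stripped FBS medium were dosed with compound titrations for 16 h at 37 °C; CCF4 β-lactamase readout (405 nm ex, 460/530 nm em). EC50 and efficacy from Hill fits, normalized to 50 nM calcitriol (100%) and DMSO (0%).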

[8] = target: Retinoic acid receptor RXR-alpha (Homo sapiens) (UniProt P19793); test: qHTS assay for small molecule agonists of retinoid X receptor alpha signaling (AID 588544; calls by dose curve; note: potency is the fitted concentration of half-maximal effect); conditions: HEK293T RXRa-UAS-bla, beta-lactamase reporter, 18 h; activation: at 76.7 µM (top of the series) unless noted
[9] = target: Retinoic acid receptor RXR-alpha (Homo sapiens) (UniProt P19793); test: qHTS assay for small molecule antagonists of retinoid X receptor alpha signaling (AID 588546; active = well fitted inhibition curve with a large enough effect in the signal ratio, with a control signal flat, not every such curve was filed as active; inconclusive = small, poorly fitted or top-dose-only effect, or effect the other way, or a change in a side signal; inactive = no such curve, though single readings can be large or run the other way; the % refers to the signal ratio; note: potency is the fitted concentration of half-maximal effect); conditions: HEK293T RXRa-UAS-bla, beta-lactamase ratio, antagonist mode
Outline: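 Beta-lactamase reporter inhibition, read as CCF4 fluorescence ratio (ex 405, em 460/530 nm) after 2 h at RT. HEK293T UAS-bla cells, 2500/well, were stimulated with 9-cis-RA at 500 or 100 nM final alongside test compound for 18 h at 37 C.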

[10] = target: Thyroid hormone receptor beta (Homo sapiens) (UniProt P10828); test: qHTS assay for small molecule antagonists of thyroid hormone receptor beta signaling (AID 588547; active = well fitted inhibition curve with a large enough effect in the signal ratio, with a control signal flat, not every such curve was filed as active; inconclusive = small, poorly fitted or top-dose-only effect, or effect the other way, or a change in a side signal; the % refers to the signal ratio;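 note: cells stimulated with 0.4 nM T3 agonist during compound exposure; % is set by controls: 0 for no effect and ±100 for the full control effect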); conditions: TR-UAS-bla HEK293, beta-lactamase ratio, antagonist mode, 18 h
Outline: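 TR-UAS-bla GripTite HEK293 cells in 2% charcoal/dextran FBS medium were preincubated 4 h at 37 C, given compound (0.59 nM to 92 uM) plus 0.4 nM T3 (final) for 18 h, then CCF4 for 2 h at RT; Hill fit gave IC50.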

[11] = qHTS assay for small molecule agonists of the antioxidant response element (ARE) signaling pathway (AID 651741; active = well fitted activation curve with a large enough effect in the signal ratio; inconclusive = small, poorly fitted or top-dose-only effect, or effect the other way, or a change in a side signal; the % refers to the signal ratio; note: potency is the fitted concentration of half-maximal effect); conditions: HepG2 ARE-bla reporter, beta-lactamase FRET ratio, 16 h; activation: at 96 µM (top of the series) unless noted
Outline: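 Compounds in DMSO are pinned onto HepG2 ARE-bla cells (2,000/well) that were preincubated 5 h; plates stay 16 h at 37 C, then beta-lactamase activity is detected with LiveBLAzer B/G substrate by fluorescence.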

[12] = qHTS assay to identify small molecules that stimulate interleukin-8 (IL-8) secretion (AID 651758; active = well fitted activation curve with a large enough effect in the signal ratio; inconclusive = small, poorly fitted or top-dose-only effect, or effect the other way, or a change in a side signal; the % refers to the signal ratio; note: 0% is about no effect); conditions: HTRF ratio (665/615); activation: at 92.2 µM (top of the series)
Outline: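 THP-1, 2000 cells/well; cpd 16 h, 37 C; add cryptate + XL665 anti-IL-8 Abs; RT 1-3 h; TR-FRET read.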

[13] = target: Peroxisome proliferator-activated receptor alpha (Homo sapiens) (UniProt Q07869); test: qHTS assay for small molecule agonists of the peroxisome proliferator-activated receptor alpha (PPARalpha) signaling pathway (AID 651778); conditions: PathHunter PPARalpha complementation, chemiluminescence, 6 h; max response: active compounds read high; note: % of control where 0% means no effect
Outline: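 Cells plated at 2,000/well and held overnight at 37 C, 5% CO2, then compound added by pin tool for 6 hr; after PathHunter detection reagent and 60 min at room temperature, chemiluminescence from enzyme complementation was read.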

[14] = target: Nuclear receptor ROR-gamma (Homo sapiens) (UniProt P51449); test: qHTS assay for small molecule antagonists of the retinoid-related orphan receptor gamma (ROR-gamma) signaling pathway (AID 651802);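 note: luciferase reporter luminescence driven by ROR response element; % is set by controls: 0 for no effect and ±100 for the full control effect; nearly all actives have a fitted effect of over 60% in size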
Outline: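 CHO cells with TET-inducible ROR-gamma and RORE-luciferase reporter, dosed then doxycycline-induced. After 16 h at 37C, One-Glo luminescence read; decreased signal indicates antagonism.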

[15] = qHTS assay for small molecule agonists of the antioxidant response element (ARE) signaling pathway measured by Nrf2-dependant transcriptional activity (AID 720636; active = well fitted curve in the direction sought with a large enough effect in the repeat runs; inconclusive = weak or mixed curves; inactive = no such curve, though single readings can be large; an effect the other way counts as inactive or inconclusive; note: potency is the fitted concentration of half-maximal effect)
Outline: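 Nrf2-dependent transcription read as ONE-Glo luciferase signal from ARE-luc HepG2 reporter cells after 16 hr compound treatment at 37 C, 5% CO2, in assay medium with 1% dialyzed FBS.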

[16] = qHTS assay for small molecule antagonists of the retinoid-related orphan receptor gamma (ROR-gamma) signaling pathway - cell viability counter screen (AID 720652; active = well fitted curve in the direction sought with a large enough effect in the repeat runs; inconclusive = weak or mixed curves; inactive = no such curve, though single readings can be large; an effect the other way counts as inactive or inconclusive;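 note: potency is the fitted concentration of half-maximal effect; compound exposure lasted 16 hr before ATP read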)
Outline: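 CHO cells carrying TET-inducible ROR and RORE-luciferase reporter, plated 5 hr, then dosed with compound plus doxycycline. After 16 hr at 37 C, viability read as intracellular ATP by CellTiter-Glo luminescence.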

[17] = qHTS assay for cell viability of HEK293 cells (AID 743288); conditions: ATP luminescence (CellTiter-Glo), 18 h; max response: active compounds read low; note: potency is the fitted concentration of half-maximal effect; nearly all actives have a fitted effect of over 50% in size
Outline: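 Parental HEK293 cells were seeded at 2,000 cells/well, rested at least 5 h at 37 C, then exposed to compounds in DMSO for 18 h at 37 C. Viability was read as ATP-dependent luciferase luminescence after 30 min at room temperature.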

CC/C=C/C/C=C/C/C=C/CCCCCCCC(=O)OCC
Potency [1]: inconclusive: 79.4 µM [cytotoxic, single point] | Potency [2]: inconclusive: 50.1 µM [cytotoxic, partial curve] | Potency [3]: inconclusive: 63.1 µM [side channel, rising, single point] | activation [4]: inactive: 1.74% | Potency [5]: inconclusive: 44.7 µM [side channel, rising, partial curve, poor fit] | Potency [6]: inconclusive: 44.7 µM [falling, partial curve] | Potency [7]: inconclusive: 44.7 µM [side channel, rising, single point] | Potency [8]: inconclusive: 39.8 µM [side channel, rising, partial curve] | Potency [9]: inconclusive: 44.7 µM [side channel, rising, single point] | activity change % (negative = inhibition) [10]: inconclusive: 2.95% | Potency [11]: active: 59.6 µM | activation [12]: inconclusive: -13.2% | max response [13]: inactive: 19.5% | Potency [14]: inactive | Potency [15]: active: 66.8 µM | Potency [16]: inconclusive: 75 µM [cytotoxic, partial curve, poor fit] | Potency [17]: inconclusive: 70.8 µM [cytotoxic, single point]
